Test results: PubChem BioAssay AID2685 (National Center for Advancing Translational Sciences (NCATS), 2010)
The campaign covered roughly 320,000 compounds. About 2,100 (0.66%) were called active. The inconclusive results got no clear call from the source; some entries with a clear call stand among them for comparison. The call rests on the fitted dose curve; in most records, active means well fitted inhibition curve with a large enough effect in the signal ratio, with a control signal flat (not every such curve was filed as active); inconclusive means small, poorly fitted or top-dose-only effect, or effect the other way, or a change in a side signal; inactive means flat fitted curve, though single readings scatter; the % refers to the signal ratio. Potencies of inconclusive entries are doubtful fits and often do not repeat.

experiment: qHTS Assay for Lipid Storage Modulators in Drosophila S3 Cells; settings: BODIPY lipid droplet fluorescence, 18-24 h, cells fed with added oleic acid; lipid storage change, negative = inhibition: at 46.1 µM (top of the series) unless noted
Outline: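 Drosophila S3 cells loaded with oleic acid (400 uM, as added) and compounds at several concentrations; lipid droplets imaged by 488-nm laser-scanning cytometry, 500–530 nm intensity and object ratio to cell channel. Percent activity normalized to 20 uM Triacsin C.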
On the % scale 0 is the no-effect control and ±100 the full control effect; potency means the concentration at half of the fitted maximal effect.

Row | SMILES | lipid storage change, negative = inhibition | Potency
1 | CC(=O)c1sc2nc(CSc3nnnn3-c3ccccc3)[nH]c(=O)c2c1C | inconclusive: 16.8% | 
2 | NC(=O)c1c(NC(NC(=O)c2ccco2)C(=O)c2ccc(Cl)cc2)sc2c1CCCC2 (centres undefined) | inconclusive: 39.4% | 
3 | Cc1cc(=O)c2n(Cc3ccc(Cl)cc3)nc[n+]2[nH]1 | inconclusive: 24.4% | 
4 | O=C(O)C1Nc2ccc(Br)cc2C2C=CCC12 (centres undefined) | inconclusive: 88.2% | 
5 | CC(=O)c1c(C)[nH]c(C(=O)Nc2nccs2)c1C | inactive | 
6 | O=c1c(Cl)c(NCc2ccccc2Cl)cnn1C12CC3CC(CC(C3)C1)C2 |  | active: 13 µM
7 | O=C(Nc1cccc(C(=O)NC2CCCC2)c1)c1ccccc1 |  | inconclusive: 29.1 µM [cytotoxic, partial curve, poor fit]
8 | CC(=O)N[C@@H](Cc1c[nH]c2ccccc12)C(=O)NCc1ccccc1 | inconclusive: -100% | 
9 | Cc1cc(S(=O)(=O)NCc2ccccc2)ccc1OCC(=O)N1CCCC1 |  | inconclusive: 6.51 µM [falling, single point]
10 | COc1ccc(O)c(/C=N/c2nc3ccccc3n2C)c1 | inconclusive: -14% | 
11 | COC(=O)c1ccc(C)c(NC(=O)CSc2nnc3ccccn23)c1 | inconclusive: 17.8% | 
12 | CC(=O)N1N=C(c2ccc(C)o2)CC1c1ccc(Br)cc1 (centres undefined) | inconclusive: 37.4% | 
13 | CCN(CC)C(=O)C1CCN(S(=O)(=O)c2ccc3oc4ccccc4c3c2)CC1 | inconclusive: 33% | 
14 | CN(Cc1ccccc1)Cc1nc2c(c(=O)n(C)c(=O)n2C)n1Cc1ccccc1Cl | inconclusive: 56.1% [activator] | 
15 | COc1ccccc1CN(C(=O)CNC(=O)c1ccco1)C(C(=O)NCC1CCCO1)c1ccc(OC)c(OC)c1 (centres undefined) | inconclusive: -176% | 
16 | Cc1ccc(C2=NC3(CCCC3)N=C2SCC(=O)Nc2ccc3c(c2)OCCO3)cc1 | inconclusive: -7.64% | 
17 | O=C(C1CCCN1C(=O)c1cccs1)N1CCN(S(=O)(=O)c2ccc(F)cc2)CC1 (centres undefined) |  | inconclusive: 20.6 µM [activator, partial curve]
18 | Cc1ccc(-c2c(C)n([O-])c3c([n+]2=O)CCC3)cc1 |  | inconclusive: 10.3 µM [falling, single point]
19 | COC(=O)CCC(C)N1CCC(Oc2ccc(C(=O)N3CCCC3)cc2)CC1 (centres undefined) | inconclusive: 15% | 
20 | CCOc1ccc(NC(=O)CSc2nc(N3CCOCC3)nc(N3CCOCC3)n2)cc1 | inactive | 
21 | C[C@@H]1CC[C@@]2(O[C@H](CCO)C[C@H](O)[C@H]2O)O1 |  | inconclusive: 4.61 µM [falling, full curve, poor fit]
22 | Cn1ncc(Cl)c1C(=O)N1CCCc2ccccc21 | inconclusive: -15.8% | 
23 | O=C(Nc1ccc2cn[nH]c2c1)c1ccc(Cl)c(S(=O)(=O)N2CCOCC2)c1 |  | inconclusive: 0.146 µM [activator, full curve]
24 | Cc1ccc(C)c(C(C)NC(=O)C2CCCC2)c1 (centres undefined) |  | inconclusive: 4.11 µM [activator, single point]
25 | Cc1ccc(SCC2(O)CCN(C(=O)c3ccc(Cl)cc3)CC2)cc1 | inconclusive: -19% | 

For convenience, part of the list above.
Row | SMILES | lipid storage change, negative = inhibition | Potency
15 | COc1ccccc1CN(C(=O)CNC(=O)c1ccco1)C(C(=O)NCC1CCCO1)c1ccc(OC)c(OC)c1 (centres undefined) | inconclusive: -176% | 
16 | Cc1ccc(C2=NC3(CCCC3)N=C2SCC(=O)Nc2ccc3c(c2)OCCO3)cc1 | inconclusive: -7.64% | 
17 | O=C(C1CCCN1C(=O)c1cccs1)N1CCN(S(=O)(=O)c2ccc(F)cc2)CC1 (centres undefined) |  | inconclusive: 20.6 µM [activator, partial curve]

Additional records follow.

Row | SMILES | lipid storage change, negative = inhibition | Potency
26 | Cc1ccc(S(=O)(=O)CCC(=O)Nc2nnc(-c3ccco3)o2)cc1 | inconclusive | 
27 | COc1ccc(NC(=O)CCC(=O)N2CCOCC2)c([N+](=O)[O-])c1 | inconclusive: 8.51% | 
28 | CC(NC(=O)C(NS(=O)(=O)c1cccs1)C(C)C)c1ccc(S(N)(=O)=O)cc1 (centres undefined) | inconclusive: -17.2% | 
29 | CN1C(=O)C(=O)/C(=C(/O)c2ccc(Br)cc2)C1c1ccc(F)cc1 (centres undefined) |  | inconclusive: 0.058 µM [falling, partial curve, poor fit]
30 | CCc1ccc(CN2CCCC(CNC(=O)c3cccc(OC)c3OC)C2)cc1 (centres undefined) |  | inconclusive: 20.6 µM [activator, single point]
31 | COc1ccc(NC(=O)CNC(=O)c2c(C)nn(C)c2Cl)cc1 | inconclusive: 3.87% | 
32 | O=C(Cc1c(F)cccc1Cl)N/N=C/c1cccs1 |  | inconclusive: 1.03 µM [activator, full curve]
33 | CCN(CC)C(=O)c1cc2cc(Br)ccc2oc1=O | inconclusive: -90.8% | 
34 | CCOCC(=O)Nc1cc(Cl)c(OC)cc1OC | inconclusive: 15.4% | 
35 | COc1ccc(NC(=O)CN2C(=O)COc3ccc(C)cc32)c(OC)c1 |  | inconclusive: 14.6 µM [activator, partial curve]
36 | O=C(Cn1ccc([N+](=O)[O-])n1)NCc1cccnc1 | inconclusive: -22.7% | 
37 | CCCN(CC(=O)Nc1ccccc1C)C(=O)C1CCN(c2ncnc3sc(C)c(C)c23)CC1 | inconclusive: -52.8% | 
38 | CCOc1ccc2nc(N(CCN(C)C)C(=O)c3ccc4c(c3)CCCC4)sc2c1 |  | inconclusive: 18.4 µM [falling, single point]
39 | Cc1nn(Cc2ccc(Cl)cc2)c(C)c1NC(=O)CSc1n[nH]c(C)c1[N+](=O)[O-] | inconclusive: 10.8% | 
40 | CC(NS(=O)(=O)c1ccc(Cl)cc1)C(=O)Nc1ccc2c(c1)OCCO2 (centres undefined) | inconclusive: -8.19% | 
41 | COc1ccc(CN(CC(=O)NCc2ccc(F)cc2)C(=O)CCC(=O)Nc2cc(C)ccn2)cc1 |  | active: 23.1 µM
42 | O=[N+]([O-])c1cccc(Cl)c1NCCNS(=O)(=O)c1ccc(Cl)cc1 | inconclusive: -29.8% | 
43 | Cc1cccc(C(=O)NCCN2CCN(c3ccccc3)CC2)c1 |  | inconclusive: 20.6 µM [falling, partial curve]
44 | O=C(Nc1ccccc1Cl)O/N=C(/c1ccccc1)c1ccccn1 | inconclusive: 6.89% | 
45 | CCOc1ccc(/C=N\NC(=O)CC(=O)NCCc2ccccc2)cc1 |  | inconclusive: 6.51 µM [falling, single point]
46 | COC(=O)c1ccccc1S(=O)(=O)N1CCC(C(=O)NCc2ccco2)CC1 | inconclusive: 16.6% | 
47 | OCCC1CN(Cc2cnc(-c3ccccc3)s2)CCN1Cc1ccccc1 (centres undefined) | inactive | 
48 | COc1cc(NC(=O)CSc2nnnn2-c2ccccc2)cc(OC)c1OC |  | inconclusive: 0.651 µM [activator, full curve]
49 | CCCCn1c(N)c(N(CC)C(=O)CCc2ccccc2)c(=O)[nH]c1=O |  | inconclusive: 8.2 µM [falling, partial curve]
